Source: paper PMC7114187 (Antiviral Research, 2008)

The compounds below were run on influenza neuraminidase (NA), inactivated viral suspensions of influenza A/Udorn/72 (H3N2).
Type: biochemical

Which “NA activity inhibition at 50 μM (%)” value does the source give for Clc1ccccc1C(c1ccccc1)(c1ccccc1)n1ccnc1 [Clotrimazole] here?
Its value is 94.5%.

Clc1ccc(COC(Cn2ccnc2)c2ccc(Cl)cc2Cl)cc1 (stereo not shown) [Econazole nitrate] was tested. Which “NA activity inhibition at 50 μM (%)” value did it give?
The value was 96.4%.

With Clc1ccc(COC(Cn2ccnc2)c2ccc(Cl)cc2Cl)c(Cl)c1 (stereo not shown) [Miconazole nitrate] as the compound, how does the “NA activity inhibition at 50 μM (%)” value read?
The value was 100.0%.

With Clc1ccc(CSC(Cn2ccnc2)c2ccc(Cl)cc2Cl)cc1 (stereo not shown) [Sulconazole nitrate] as the compound, how does the “NA activity inhibition at 50 μM (%)” value read?
Its value is 99.6%.
